Source: patent US8623405B2, “Finely divided composition containing poorly water soluble substance” (Takeda Pharmaceutical Company Limited, priority 2005, dated 2014)
In brackets after ≈: the same amount, converted by molar mass.

Assay: physchem
Settings: 20 °C, aqueous with cosolvent or surfactant or cyclodextrin, thermodynamic from solid

Q: Which solubility does the source give for `COC(=O)C1=C(C)NC(C)=C(C(=O)OC)C1c1ccccc1[N+](=O)[O-]` [nifedipine] here?
A: 264 µg/mL (≈ 762 µM)
